# Data taken from publication PMC7819943, “Rice protein-binding microarrays: a tool to detect cis-acting elements near promoter regions in rice”.
# Amino acid sequences for entries named in this document (tags omitted).
# UniProt Q0JBA9, entry or part of it: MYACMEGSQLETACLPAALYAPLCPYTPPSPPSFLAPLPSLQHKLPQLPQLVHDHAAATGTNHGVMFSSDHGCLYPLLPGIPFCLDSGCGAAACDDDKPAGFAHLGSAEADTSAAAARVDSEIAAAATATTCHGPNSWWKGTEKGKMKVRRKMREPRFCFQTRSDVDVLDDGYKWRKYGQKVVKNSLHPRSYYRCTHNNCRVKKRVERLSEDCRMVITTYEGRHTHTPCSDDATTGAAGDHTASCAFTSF
# The list shows a part of the results.
# Target: OsWRKY34 (Oryza sativa, UniProt Q0JBA9 1-250)
# Assay: protein-binding microarray (RPBM); PBS, 2% BSA, 51.3 ng/ul salmon testes DNA, 50 uM zinc acetate, 200 nM TF, 25 C, 1 h; high values mean tight binding
# Settings: protein: recombinant; tags: N-terminal polyhistidine and DsRed monomer fusion (pET32a); label: CyDye5-dUTP incorporated in the synthesized complementary strand; 3' TTTTT single-stranded linker to array surface; dsDNA, one strand shown
# How it was run: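 Binding signal is reported as fluorescence intensity per feature (arbitrary units) from an Axon 4000B scanner. Incubation used 200 nM of each Ni–NTA-purified, N-terminally polyhistidine- and DsRed-fused transcription factor from E. coli BL21-CodonPlus on a double-stranded custom Agilent array for 1 h at 25 °C, with 50 µM zinc acetate in the buffer, followed by washing.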
row,Sequence,binding signal
1,TTTTGCCAATTTTTAGCTCATATAGCGATATCGATCTTCTCGGAGTCACCTAGTGCAG,8180 fluorescence intensity (a.u.)
2,CACGCCACCACGCTCTCCGTGACAACGAGGCGCCAACCTCCGGAGTCACCTAGTGCAG,8090 fluorescence intensity (a.u.)
3,TCATCTCAAACTCACTCGCTCACACATACAAGCGCAGTTACGGAGTCACCTAGTGCAG,8050 fluorescence intensity (a.u.)
4,TGCGTAGCTCTATAGTTTTTCAGTCTCGTTAAGCAGTACTCGGAGTCACCTAGTGCAG,8120 fluorescence intensity (a.u.)
5,AACAAAAAGCATCCATCCATCCATCCATCCATGGCAGATTCGGAGTCACCTAGTGCAG,8800 fluorescence intensity (a.u.)
6,TACACCCTTGGGCCCACCTGTCAACCTCTCACCCTATATTCGGAGTCACCTAGTGCAG,11900 fluorescence intensity (a.u.)
7,GTTGACTTTTTGATTAACGTTTGACCATTCGTTTTATTCACGGAGTCACCTAGTGCAG,9480 fluorescence intensity (a.u.)
8,GTAAAGAACCTTCAATTAGTGTCCTTTGTTCTCATCATTGCGGAGTCACCTAGTGCAG,9170 fluorescence intensity (a.u.)
9,AACATCTGCCTGCTCACTAAAATGATCTACCGGCTTTTTTCGGAGTCACCTAGTGCAG,8620 fluorescence intensity (a.u.)
10,TTACTATTGTGGTTTAGATTCGGATTTGCATCTTGTATTTCGGAGTCACCTAGTGCAG,10300 fluorescence intensity (a.u.)
11,TCTCATGAGCTAGCGCGCCCCGCGCGTACAGCCCCGCATGCGGAGTCACCTAGTGCAG,9590 fluorescence intensity (a.u.)
12,AGCTAAGACACCACCACCTCCTCACATCTCATCTCATCATCGGAGTCACCTAGTGCAG,10500 fluorescence intensity (a.u.)
13,TCCGTGTTATCGTTTATATTCCAATAGTCGGTGAATTACTCGGAGTCACCTAGTGCAG,8170 fluorescence intensity (a.u.)
14,TACGTGCCGGTCCCCACTACATCCATCGTCCGATCTCGCGCGGAGTCACCTAGTGCAG,9660 fluorescence intensity (a.u.)
15,GAATCTCTTTTGCAGCAGTTGTACACTTGTATTTTTGCCACGGAGTCACCTAGTGCAG,8530 fluorescence intensity (a.u.)
16,CTCGCACCGCTACACCCGGGCCCACCCCGCCCATCCCCAGCGGAGTCACCTAGTGCAG,9710 fluorescence intensity (a.u.)
17,AATACGGGACCTTTTCATTTTTCCTTTTCCGGCGAGACAACGGAGTCACCTAGTGCAG,8300 fluorescence intensity (a.u.)
18,AGAACTTGAGTAGCTTCTACCTCCATCCAATCCACCAACACGGAGTCACCTAGTGCAG,8120 fluorescence intensity (a.u.)
19,CCCTCGTGCTACTTTGACCCATGACTACTTCTCTCTCACGCGGAGTCACCTAGTGCAG,10200 fluorescence intensity (a.u.)
20,GCCGGTGGTCTTCCTCGTGCCGAGCCGACGCCACCGCCGGCGGAGTCACCTAGTGCAG,11000 fluorescence intensity (a.u.)
21,GCGTTTGTGTTCGTGAGTGTGAGAGTATTCCTGGGCTTAGCGGAGTCACCTAGTGCAG,9140 fluorescence intensity (a.u.)

# Some values from the list.
# TCTCATGAGCTAGCGCGCCCCGCGCGTACAGCCCCGCATGCGGAGTCACCTAGTGCAG | binding signal: 9590 fluorescence intensity (a.u.)
# TACACCCTTGGGCCCACCTGTCAACCTCTCACCCTATATTCGGAGTCACCTAGTGCAG | binding signal: 11900 fluorescence intensity (a.u.)

# Remaining list, next part.

row,Sequence,binding signal
1,TTGTTGTTGGTTTTTCCTTTCTTAGGTTGACAGCTTGCCTCGGAGTCACCTAGTGCAG,9990 fluorescence intensity (a.u.)
2,CTTGCTACCCACGCGCAGCTCCGCCGCCCTCGATCTCTCTCGGAGTCACCTAGTGCAG,10600 fluorescence intensity (a.u.)
3,GACGTTTTGATATTGACCAAAGTCAAACTGGTTTAAGTTTCGGAGTCACCTAGTGCAG,9140 fluorescence intensity (a.u.)
4,GTCATCAGGCCTCGTCCTTCGTCCATGCCAACGCCCGTGACGGAGTCACCTAGTGCAG,12800 fluorescence intensity (a.u.)
5,TTATTTTATCTCGTGCTCATGACTGAATCATTTAGCTACCCGGAGTCACCTAGTGCAG,8040 fluorescence intensity (a.u.)
6,CTCTGTCCTATTGGAACATTTCTCTGAAGCAACACCATATCGGAGTCACCTAGTGCAG,9340 fluorescence intensity (a.u.)
7,TTTGCCACATCACTATCGATTTCCATCCGTTGGATCACTCCGGAGTCACCTAGTGCAG,8040 fluorescence intensity (a.u.)
8,CCTAATTGTGTTTCTATATGGACTCTATACTCTACTTCTACGGAGTCACCTAGTGCAG,10800 fluorescence intensity (a.u.)
9,TTTCACAATATAAGTCATTCTAGCATTTCCCACATTCATACGGAGTCACCTAGTGCAG,8510 fluorescence intensity (a.u.)
10,GGTTTGGGGTGGTTTATTGTACAATAAAGATAAAGTTACCCGGAGTCACCTAGTGCAG,19000 fluorescence intensity (a.u.)
11,TATGTGCGTGGTGGGCCCTGATCCTATCCTACGTGTCATACGGAGTCACCTAGTGCAG,8740 fluorescence intensity (a.u.)
12,CATGTCGTCGTCGTGGTGGTGGTGGTGGTGGTGGGGCGGGCGGAGTCACCTAGTGCAG,43400 fluorescence intensity (a.u.)
13,CCCACCGCGCTCGCTCCCTCGTCGTCGTCGCAGTCAACCCCGGAGTCACCTAGTGCAG,8120 fluorescence intensity (a.u.)
14,ACCAGATTCACCGTGATTAGTCTCACACTTAATAAATCGACGGAGTCACCTAGTGCAG,8090 fluorescence intensity (a.u.)
15,ACCAACACTATTCATCTAAAATTTGTCATTTTATAACCAACGGAGTCACCTAGTGCAG,8250 fluorescence intensity (a.u.)
16,ACTGGTTTATTATCTTTGTTTGTCAAGATCCCAAGAACATCGGAGTCACCTAGTGCAG,8720 fluorescence intensity (a.u.)
17,GCTAGGTCAACTTTGCTCTCAGCTCTCGCTCCCGATGCCACGGAGTCACCTAGTGCAG,9760 fluorescence intensity (a.u.)
18,ACGAACGGTCGAACATATGTTAAAAAGTCAACGGTGTCAACGGAGTCACCTAGTGCAG,8910 fluorescence intensity (a.u.)
19,ACTTTTTTTCGGCGGACGATGGGCCCAACACAACATCTCGCGGAGTCACCTAGTGCAG,12900 fluorescence intensity (a.u.)
20,GGCTACCCCATCGCCACCACCACCACCACCGCATCTCTCTCGGAGTCACCTAGTGCAG,10900 fluorescence intensity (a.u.)
21,AAGTCATTCTAGTATTTCCTACATTCATATTTATGCTAATCGGAGTCACCTAGTGCAG,8650 fluorescence intensity (a.u.)
